Consider one substance from publication PMC10790703 (mBio, 2023).

By UniProt entry, the sequences of proteins in these tests, tags left out.
UniProt P0DTC3: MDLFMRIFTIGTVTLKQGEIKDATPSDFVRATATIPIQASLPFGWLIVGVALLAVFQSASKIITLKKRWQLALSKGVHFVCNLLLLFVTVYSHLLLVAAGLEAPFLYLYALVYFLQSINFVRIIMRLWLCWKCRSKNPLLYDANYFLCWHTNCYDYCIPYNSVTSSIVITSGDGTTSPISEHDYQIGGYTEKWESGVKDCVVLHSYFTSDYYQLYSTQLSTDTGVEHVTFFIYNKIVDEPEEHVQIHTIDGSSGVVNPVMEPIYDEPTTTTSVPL

For test [1], the target named is T1, lysosome-associated membrane protein 1 (human (endogenous in 293T)) (UniProt P11279).
T1 sequence: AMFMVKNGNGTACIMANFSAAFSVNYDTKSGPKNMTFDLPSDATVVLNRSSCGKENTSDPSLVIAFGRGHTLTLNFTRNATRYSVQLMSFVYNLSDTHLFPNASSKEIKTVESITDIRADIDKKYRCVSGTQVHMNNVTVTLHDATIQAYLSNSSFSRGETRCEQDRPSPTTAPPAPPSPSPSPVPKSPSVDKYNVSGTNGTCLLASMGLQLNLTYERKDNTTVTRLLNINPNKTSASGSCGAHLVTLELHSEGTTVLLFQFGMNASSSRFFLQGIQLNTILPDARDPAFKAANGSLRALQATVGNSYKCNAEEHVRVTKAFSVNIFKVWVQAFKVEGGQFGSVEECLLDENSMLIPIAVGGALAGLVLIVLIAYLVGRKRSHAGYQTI
As to the kind of experiment: co-IP.

Test [2] concerns the target T2, ubiquitin E3 ligase TRIM59 (human (endogenous in 293T)) (UniProt Q8IWR1).
T2 sequence: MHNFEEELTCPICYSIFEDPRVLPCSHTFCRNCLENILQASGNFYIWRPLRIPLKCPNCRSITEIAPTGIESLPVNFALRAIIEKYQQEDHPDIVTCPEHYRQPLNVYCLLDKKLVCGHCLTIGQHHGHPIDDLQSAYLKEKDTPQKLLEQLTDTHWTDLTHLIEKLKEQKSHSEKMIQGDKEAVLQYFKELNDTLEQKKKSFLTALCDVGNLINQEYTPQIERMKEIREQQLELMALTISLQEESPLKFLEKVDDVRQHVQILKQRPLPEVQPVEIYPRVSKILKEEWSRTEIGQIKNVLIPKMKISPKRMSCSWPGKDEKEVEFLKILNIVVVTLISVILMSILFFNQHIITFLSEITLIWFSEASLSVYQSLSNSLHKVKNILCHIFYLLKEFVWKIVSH
The experiment in a line: co-IP.

Results are given in words; binding and its absence hold for the method and conditions named. Binding seen in cells or lysates may run through a third protein. Some results given as binding are weak or reduced against the parent protein; the word gives no strength.

Regarding “SARS-CoV-2 ORF3a protein, wild type, HA-tagged (from UniProt P0DTC3 1-275)”, the binding entry in test [1] and in test [2] was “binds” each time.
